From PubChem BioAssay AID1487 (National Center for Advancing Translational Sciences (NCATS), 2009)
Some of the results follow. Shown are side measurements of this screen, not its main read-out; they come without a call. Compounds called inactive in the main read-out are mostly missing here. The note in brackets gives the kind of curve behind each potency; many fits are weak.

Test: qHTS Assay for Modulators of Lamin A Splicing
Conditions: HeLa LMNA splicing GFP/RFP minigene ratio, 48 h
Description: NCGC Assay Overview: Hutchinson-Gilford Progeria Syndrome (HGPS) is a pediatric premature aging disease caused by a spontaneous mutation in the lamin A/C (LMNA) gene. The mutation activates a cryptic splice site in the LMNA pre-mRNA which results in production of a pre-lamin A protein that cannot be processed properly. The mutant protein accumulates in the nucleus and negatively affects numerous cellular functions. Correction of the splicing defect in HGPS patient cells using a targeted oligonucleotide (exo11) leads to reversal of the cellular disease phenotypes. To identify small molecule modulators of aberrant LMNA splicing, a homogenous assay was constructed in HeLa cells that used a GFP containing minigene to report on correction of aberrant splicing in lamin A and a RFP (DsRed2) to report on cell viability, uniformity and nonspecific effects on the assay signal. This assay was adapted to laser-scanning microplate cytometry (Acumen, TTP Labtech) where miniaturization of the assay to a 1,536-well plate format was possible. References: Bowen, W. P.; Wylie, P. G. Application of Laser-Scanning Fluorescence Microplate Cytometry in High Content Screening. Assay Drug Dev Technol 2006;4:209-221. Scaffidi P, Misteli T. Reversal of the cellular phenotype in the premature aging disease Hutchinson-Gilford progeria syndrome. Nat.
NCGC Assay Protocol Summary: Reagents/Controls: Stable clones expressing DsRed2 and lamin A-EGFP were generated by Cell and Molecular Technologies in S3 HeLa cells. HeLa cells were prepared for the assay when they were 70-90% confluent. The cells were counted and resuspended in Opti-MEM I (no phenol red; Gibco), 2% FBS, 1% penicillin/ streptomycin (Gibco) at concentration of 120 cells/uL concentration. The suspension was passed through a Falcon basket filter with pore size 40um (Beckton Dickson). Control titrations: column […] 1536-well plate contained a sixteen point titration (1:2 dilutions) in duplicate of ancitabine (Sigma: A8598) beginning at 40 uM final concentration. Column 2 contained a sixteen point titration (1:2 dilutions) of cycloheximide beginning at 1.4 mM final concentration. Column 3 contained ancitabine at 40 uM and column 4 contained was the vehicle control (0.5% DMSO final concentration). Assay Steps: 5 uL of HeLa cells were plated in Aurora LoBase black clear bottom (cyclic-olefin polymer) 1536-well plates at a final density of 600 cells/well. Controls and library compounds were added with a 1536-well pin array using the Kalypsys pin-tool. The plates were then incubated for 48 hrs in a cell-culture incubator (37 °C; 5% CO2, 98% humidity). Following incubation the plates were read on the Acumen Explorer using the 488 nm laser. Data was collected on objects between 10 and 100 um in size. Cell objects were defined by a 15 um width x 10 um depth filter. The ratio of the total object intensity in PMT1 (500-530 nm emission; GFP) over PMT3 (575-640 nm emission; RFP) was calculated for analysis. Keywords: NIH Roadmap, MLSCN, MLI, MLSMR, qHTS, NCGC, lamin A, Progeria, RNA splicing.

[1] = measured here: RFP viability control channel
[2] = measured here: GFP splicing reporter channel

| SMILES | AC50 [1] | AC50 [2] |
| --- | --- | --- |
| CC(=O)C(Sc1nn(C)c(=S)s1)C(=O)Nc1ccccc1 (stereo not drawn) | 0.0316 µM [rising, full curve, poor fit] | – |
| Fc1ccc(N2CCN(C3=Nc4cccc5cccc3c45)CC2)cc1 | 14.1 µM [rising, single point] | – |
| Cc1cc(C)n(-c2ccc3nncn3n2)n1 | 3.16 µM [falling, partial curve] | – |
| Cc1cccc(N2CCN(C(=O)CCNS(=O)(=O)c3ccc4c(c3)CCC(=O)N4)CC2)c1C | 17.8 µM [rising, single point] | 12.6 µM [rising, single point] |
| CC(C)(C)c1cc(=O)n(-c2ccccc2)[nH]1 | 12.6 µM [rising, partial curve, poor fit] | 11.2 µM [rising, partial curve, poor fit] |
| CN(C)CCCn1c(N)c(C#N)c2nc(C#N)c(C#N)nc21 | 17.8 µM [rising, single point] | – |
| Cc1cc(Br)c(NC(=O)CCl)c(Br)c1 | – | 2.82 µM [falling, single point] |
| CCOC(=O)N1CCN(C(=O)CSc2ccc3nnc(CCNC(=O)c4ccccc4)n3n2)CC1 | – | 0.0708 µM [rising, full curve, poor fit] |
| Cc1cccc(Nc2nc(N)nc(CSC(=S)N3CCOCC3)n2)c1 | 35.5 µM [rising, single point] | – |
| Cc1ccc2oc(=O)c(/C=C(\O)c3ccccc3)nc2c1 | 0.501 µM [rising, full curve] | 0.0355 µM [rising, full curve, poor fit] |
| O=C(O)c1nc(=O)[nH]c(=O)[nH]1 | 0.282 µM [rising, full curve, poor fit] | 0.0282 µM [falling, full curve] |
| CCOC(=O)c1nnc(-c2ccccc2)nc1Sc1ccccc1Cl | 35.5 µM [falling, single point] | 35.5 µM [falling, single point] |
| COc1ccc(-c2nnc(SCC(=O)NC3CCCC3)nc2-c2ccc(OC)c(OC)c2)cc1OC | 3.98 µM [falling, full curve] | – |
| CCCCOc1ccc(Br)cc1CSC(=N)N | 11.2 µM [rising, partial curve] | 10 µM [rising, partial curve, poor fit] |
| COc1ccc2[nH]cc(C(=O)CN(C)CCc3ccc(OC)c(OC)c3)c2c1 | 14.1 µM [rising, partial curve, poor fit] | – |
| O=C(NCc1ccccc1)C1CCN(S(=O)(=O)c2ccc3c(c2)CCCN3C(=O)C2CCC2)CC1 | 0.0224 µM [falling, full curve, poor fit] | 0.0501 µM [falling, full curve] |
| COc1ccc(CN2CCN(C(=O)CC(C)C)CC2)c2ccccc12 | 17.8 µM [rising, single point] | – |
| O=C(NCc1ccccn1)c1cn(CCc2ccccc2)nn1 | – | 8.91 µM [falling, partial curve, poor fit] |
| COc1ccc2occ(C(=O)c3ccc(N=C(C)N(C)C)cc3)c2c1 | – | 17.8 µM [rising, single point] |

Part of the list above, with bars between the fields.
SMILES | AC50 [1] | AC50 [2]
COc1ccc2[nH]cc(C(=O)CN(C)CCc3ccc(OC)c(OC)c3)c2c1 | 14.1 µM [rising, partial curve, poor fit] | –
O=C(NCc1ccccc1)C1CCN(S(=O)(=O)c2ccc3c(c2)CCCN3C(=O)C2CCC2)CC1 | 0.0224 µM [falling, full curve, poor fit] | 0.0501 µM [falling, full curve]

The listing continues.

| SMILES | AC50 [1] | AC50 [2] |
| --- | --- | --- |
| O=C(Nc1ccc(Br)cc1)C1CCN(C(=O)c2ccc(F)cc2)CC1 | 35.5 µM [rising, single point] | – |
| COc1ccccc1OCC(=O)NCCC1=CCCCC1 | 0.158 µM [rising, full curve, poor fit] | – |
| CCCNC(=O)c1ccc2c(c1)sc1nc(-c3ccc(C)cc3)cn12 | 0.562 µM [rising, full curve, poor fit] | 0.562 µM [rising, full curve] |
| CCSc1nc2c(c(-c3ccc(C)o3)c1C#N)CCCC2 | 31.6 µM [rising, single point] | – |
| Cc1cc(C)cc(NC(=S)NCCc2c[nH]c3ccccc23)c1 | – | 35.5 µM [rising, single point] |
| O=C(CCCC(=O)NCc1ccc(F)cc1)NCc1ccc(F)cc1 | 0.794 µM [falling, full curve, poor fit] | – |
| COc1ccc(Cn2c(CCC(=O)Nc3ccc(CC#N)cc3)nc3cccnc32)cc1 | 15.8 µM [falling, single point] | 20 µM [falling, single point] |
| CC(O)Cn1cnc2c1c(=O)n(C)c(=O)n2C (stereo not drawn) | 2.51 µM [rising, partial curve, poor fit] | 2.82 µM [rising, partial curve, poor fit] |
| CC1CCn2c(nc3cc(C(=O)NCc4ccccc4)ccc32)C1 (stereo not drawn) | 0.562 µM [falling, full curve] | – |
| O=C(CNC(=O)c1ccccc1)OCc1cc(=O)n2ccsc2n1 | 5.62 µM [falling, single point] | – |
| Cc1cccc(N2CCN(C(=O)c3ccc4c(c3)N(Cc3cccc(Cl)c3)C(=O)c3ccccc3S4=O)CC2C)c1 (stereo not drawn) | – | 3.98 µM [falling, full curve, poor fit] |
| COc1ccc(C(=O)Nc2nc3c(s2)CCCC3)cc1Cl | 35.5 µM [falling, single point] | 35.5 µM [falling, single point] |
| CCCn1cc(S(=O)(=O)c2ccc(CC)cc2)c(=O)c2cc(F)c(N(CC)CC)cc21 | 0.02 µM [falling, full curve, poor fit] | 0.02 µM [falling, partial curve, poor fit] |
| Cc1cc(Cl)ccc1OCC(O)CN1C(C)CCCC1C (stereo not drawn) | 35.5 µM [rising, single point] | – |
| COc1ccc(N(Cc2cc3ccc(C)cc3[nH]c2=O)C(=O)c2ccco2)cc1 | 10 µM [rising, partial curve, poor fit] | – |
| COc1ccc(-n2c(C)cc(C(=O)COC(=O)Cn3cnc4ccccc43)c2C)cc1 | 15.8 µM [rising, single point] | 12.6 µM [rising, single point] |
| COc1cc(OC)c(NC(=O)C(=O)CC(=O)c2ccc(C)cc2C)cc1Cl | – | 39.8 µM [rising, partial curve, poor fit] |
| Cc1[nH]c2ccccc2c1SCC(=O)N1CCC(C)CC1 | – | 3.98 µM [rising, partial curve, poor fit] |
| Cc1ccc(NC(=O)CCC(=O)N2Cc3ccccc3Oc3ncccc32)cc1F | – | 1.41 µM [falling, full curve, poor fit] |

A draw from above in order of SMILES length, rising:

| SMILES | AC50 [1] | AC50 [2] |
| --- | --- | --- |
| COc1ccc(N(Cc2cc3ccc(C)cc3[nH]c2=O)C(=O)c2ccco2)cc1 | 10 µM [rising, partial curve, poor fit] | – |
| COc1ccc(-n2c(C)cc(C(=O)COC(=O)Cn3cnc4ccccc43)c2C)cc1 | 15.8 µM [rising, single point] | 12.6 µM [rising, single point] |
| CCCn1cc(S(=O)(=O)c2ccc(CC)cc2)c(=O)c2cc(F)c(N(CC)CC)cc21 | 0.02 µM [falling, full curve, poor fit] | 0.02 µM [falling, partial curve, poor fit] |

(listing goes on)

| SMILES | AC50 [1] | AC50 [2] |
| --- | --- | --- |
| CC(=O)NC(=O)c1ccc(-c2ccc(Cl)cc2)o1 | 0.794 µM [falling, partial curve] | 5.62 µM [falling, single point] |
| COc1cccc(C(=O)NC(c2ccccc2)C2CCCC2)c1 (stereo not drawn) | – | 0.112 µM [rising, single point] |
| Cc1nc2ccccn2c1C(=O)N=Nc1c(O)[nH]c2ccccc12 | 6.31 µM [falling, partial curve, poor fit] | – |
| Cc1nc(CSc2ccc(Cl)cc2)cc(N2CC(C)OC(C)C2)n1 (stereo not drawn) | 0.00355 µM [falling, full curve, poor fit] | – |
| Cc1cccc2sc(NNC(=O)c3ccc(S(=O)(=O)N4CCCC(C)C4)cc3)nc12 (stereo not drawn) | 20 µM [rising, partial curve] | 10 µM [rising, single point] |
| O=C(O)c1c(CNCc2cccc(F)c2)c2ccccc2n1Cc1ccccc1 | – | 0.0282 µM [rising, full curve, poor fit] |
| CCOc1ccc(C(=O)Nc2cccc(C)n2)cc1 | 20 µM [rising, partial curve, poor fit] | – |
| COc1ccc(N(CC(=O)NCc2ccc(Cl)cc2)S(=O)(=O)c2ccccc2[N+](=O)[O-])c(OC)c1 | – | 3.16 µM [falling, partial curve, poor fit] |
| COc1ccc(Nc2cc(C)nc3c(C)c(C)ccc23)cc1 | – | 2.51 µM [falling, partial curve, poor fit] |
| NS(=O)(=O)c1cc2c(cc1C(F)(F)F)NCNS2(=O)=O | 1 µM [rising, partial curve] | – |
| CC(=O)c1c(C)[nH]c(C(=O)NCCc2ccccc2)c1C | 35.5 µM [rising, single point] | – |
| O=C(CNc1cccc(C(F)(F)F)c1)N/N=C/c1cn(-c2ccccc2)nc1-c1ccccc1 | – | 0.562 µM [falling, full curve, poor fit] |
| O=C(CSc1nccc(-c2cccs2)n1)Nc1ccc(F)c(Cl)c1 | 35.5 µM [falling, partial curve, poor fit] | – |
| COCC(C)NC(=O)CCSc1nc(-c2ccc(OC)cc2)cc(C(F)(F)F)n1 (stereo not drawn) | 17.8 µM [rising, partial curve, poor fit] | – |
| COc1ccc(/C=N/Nc2nc(Nc3ccccc3)nc(N3CCCC3)n2)cc1 | 0.891 µM [rising, partial curve] | 0.00316 µM [rising, full curve, poor fit] |
| COc1ccccc1N1CCN(C(=O)CSc2n[nH]c(-c3ccccc3Cl)n2)CC1 | 17.8 µM [rising, single point] | – |
| CCC1CN(C(=O)Nc2ccc(Br)cc2F)c2ccccc2S1 (stereo not drawn) | 11.2 µM [rising, single point] | – |
| O=C(Oc1ccc(Cl)c2cccnc12)c1cccc([N+](=O)[O-])c1 | 17.8 µM [rising, single point] | – |
| COc1ccc(N2C(=O)/C(=C/c3ccc([N+](=O)[O-])cc3)C=C2c2ccccc2)cc1 | – | 3.16 µM [falling, single point] |
